Results are given in words; binding and its absence hold for the method and conditions named. For some of these results: Binding seen in cells or lysates may run through a third protein. Some entries that bind do so weakly or less than the wild type.

Chains of the proteins cited; added tags and fusions are not shown. Lines headed by an entry give the natural chain unless they say otherwise; changes in a name come on top.
UniProt P04386: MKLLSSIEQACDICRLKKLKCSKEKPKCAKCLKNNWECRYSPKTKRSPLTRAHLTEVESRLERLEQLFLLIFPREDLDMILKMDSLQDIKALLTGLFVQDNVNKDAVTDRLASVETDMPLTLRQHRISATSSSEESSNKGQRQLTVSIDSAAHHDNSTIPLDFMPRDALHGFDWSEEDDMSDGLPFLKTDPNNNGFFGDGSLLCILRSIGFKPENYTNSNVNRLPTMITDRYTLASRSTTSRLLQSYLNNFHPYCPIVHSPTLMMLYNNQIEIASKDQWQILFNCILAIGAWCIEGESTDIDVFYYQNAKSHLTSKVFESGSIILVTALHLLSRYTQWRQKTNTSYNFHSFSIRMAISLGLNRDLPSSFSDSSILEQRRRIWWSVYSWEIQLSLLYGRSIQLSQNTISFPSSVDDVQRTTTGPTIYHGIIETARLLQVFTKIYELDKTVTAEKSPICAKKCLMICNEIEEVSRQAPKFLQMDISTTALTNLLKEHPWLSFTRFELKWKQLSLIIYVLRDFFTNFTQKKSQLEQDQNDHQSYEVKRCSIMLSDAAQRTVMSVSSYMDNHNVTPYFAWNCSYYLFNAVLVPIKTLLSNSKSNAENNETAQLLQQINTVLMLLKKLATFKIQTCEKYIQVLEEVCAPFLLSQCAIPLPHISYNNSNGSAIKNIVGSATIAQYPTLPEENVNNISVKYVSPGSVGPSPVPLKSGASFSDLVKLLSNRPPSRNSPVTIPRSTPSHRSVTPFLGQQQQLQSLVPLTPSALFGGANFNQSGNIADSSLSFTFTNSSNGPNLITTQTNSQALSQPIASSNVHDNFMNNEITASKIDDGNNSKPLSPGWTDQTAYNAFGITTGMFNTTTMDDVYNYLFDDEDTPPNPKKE
UniProt Q9JM13: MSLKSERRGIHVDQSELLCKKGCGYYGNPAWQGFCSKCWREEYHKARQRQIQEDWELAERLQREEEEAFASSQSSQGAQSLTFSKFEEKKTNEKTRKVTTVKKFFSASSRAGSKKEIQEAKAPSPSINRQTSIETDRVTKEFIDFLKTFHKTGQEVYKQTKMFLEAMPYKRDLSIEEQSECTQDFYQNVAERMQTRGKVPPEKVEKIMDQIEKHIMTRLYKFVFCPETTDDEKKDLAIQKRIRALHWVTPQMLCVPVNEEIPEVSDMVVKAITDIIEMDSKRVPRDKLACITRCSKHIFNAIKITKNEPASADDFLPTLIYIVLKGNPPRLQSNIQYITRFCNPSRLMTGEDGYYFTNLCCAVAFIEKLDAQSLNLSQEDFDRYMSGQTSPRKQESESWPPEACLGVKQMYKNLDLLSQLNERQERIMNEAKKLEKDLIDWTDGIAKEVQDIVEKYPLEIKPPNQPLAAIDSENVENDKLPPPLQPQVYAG
UniProt Q13153: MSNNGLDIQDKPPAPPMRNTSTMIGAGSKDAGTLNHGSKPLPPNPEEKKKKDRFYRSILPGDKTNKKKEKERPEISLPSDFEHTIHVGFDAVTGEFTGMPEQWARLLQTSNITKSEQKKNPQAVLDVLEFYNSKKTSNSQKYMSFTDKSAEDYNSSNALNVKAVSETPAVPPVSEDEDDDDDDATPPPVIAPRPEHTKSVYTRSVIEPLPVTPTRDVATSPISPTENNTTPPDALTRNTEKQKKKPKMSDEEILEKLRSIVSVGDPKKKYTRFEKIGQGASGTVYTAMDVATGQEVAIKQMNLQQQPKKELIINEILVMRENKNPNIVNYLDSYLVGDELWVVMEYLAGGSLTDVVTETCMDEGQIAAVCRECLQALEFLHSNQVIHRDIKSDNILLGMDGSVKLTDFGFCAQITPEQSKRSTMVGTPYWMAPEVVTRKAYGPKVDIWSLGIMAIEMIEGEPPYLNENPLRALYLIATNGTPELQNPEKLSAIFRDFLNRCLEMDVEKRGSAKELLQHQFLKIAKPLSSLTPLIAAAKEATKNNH

In patent US7365239 one finds binding data, which are given here for 3 substances.

The target in experiment [1] is T1, wild-type mouse H-Ras expressed as DNA-binding fusion protein (mouse) (UniProt P04386+Q61411). In words: summary sentence of the example (yeast two-hybrid and pull-down).
Experiment [2] concerns the target T1, wild-type mouse H-Ras expressed as DNA-binding fusion protein (mouse). In words: yeast two-hybrid, beta-galactosidase assay.
Experiment [3] has as its target active Cdc42 (Cdc42-GTP) from lysates of mouse BMCMCs (mouse) (UniProt P60766). In words: GST pull-down from cell lysate, Western blot with anti-Cdc42. A general note: In western blotting, separated proteins are transferred to a membrane and probed.

For the substance “full-length mouse RabGEF1 expressed as GAL-4 activation domain fusion protein (from UniProt Q9JM13 1-491)”, the binding result in experiment [1] and in experiment [2] was “binds” each time.
“GST-fusion protein containing the p21-binding domain (PBD) of human Pak1 (from UniProt Q13153 67-150)”: the binding entry in experiment [3] is on record as “binds”.
“C-terminal region of mouse RabGEF1 expressed as GAL-4 activation domain fusion protein (from UniProt Q9JM13 381-491)”: in experiment [2], the binding result was “binds”.
